The text below walks through data of the supplement of paper PMC12542422.

Where a name gives a salt, the structure may show the parent alone. ± gives the standard deviation of the averaged measurements. The list shows a part of the results. These are raw signals, not scaled to a control.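 Across three biological replicates, HeLa cells were imaged for ribosome assembly using ENP1 staining (export block present or absent) or inducible tagged ribosomal protein reporters. Machine learning classified each cell's signal localization relative to DMSO controls. Hits exceeded the DMSO false-positive mean by five standard deviations and were then visually confirmed.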

This test concerns HeLa K (ENP1 immunofluorescence, no LMB). Kind of test: fraction of cells with nucleolar or nucleolar/nucleoplasmic ENP1 signal (MainHitrate); higher = more cells with nucleolar/nuclear readout signal (for ENP1 -LMB: less RNAPI inhibition; for +LMB ENP1 and RP reporters: stronger nuclear/nucleolar retention, i.e. ribosome biogenesis defect). The settings on record: concentration: 1 µM; treatment time: 6 h; ENP1 -LMB; leptomycin B: none.
In turn, `CO[C@H]1C[C@@H]2CC[C@@H](C)[C@@](O)(O2)C(=O)C(=O)N2CCCC[C@H]2C(=O)O[C@H]([C@H](C)C[C@@H]2CC[C@@H](OC(=O)C(C)(CO)CO)[C@H](OC)C2)CC(=O)[C@H](C)/C=C(\C)[C@@H](O)[C@@H](OC)C(=O)[C@H](C)C[C@H](C)/C=C/C=C/C=C/1C` [Temsirolimus (Torisel)] came in with a fraction of 0.9974 ± 0.0044.
`COc1cc(NC(C)CCCN)c2ncccc2c1` (stereo not given) [Primaquine Diphosphate] yielded a fraction of 0.991 ± 0.016.
Take `Clc1ccc(C(c2ccccc2Cl)C(Cl)Cl)cc1` (stereo not given) [Mitotane (Lysodren)]: the fraction was 0.9993 ± 0.0011.
Under `CC(C)C[C@H](NC(=O)[C@@H](O)[C@H](N)Cc1ccccc1)C(=O)O` [Ubenimex (Bestatin)] stands 0.998 ± 0.0034.
The figure for `Cc1ccc(C(=O)c2cc(O)c(O)c([N+](=O)[O-])c2)cc1` [Tolcapone] is 0.9944 ± 0.0098; for `CO[C@H]1/C=C/O[C@@]2(C)Oc3c(C)c(O)c4c(c3C2=O)C2=NC3(CCN(CC(C)C)CC3)NC2=C(NC(=O)/C(C)=C\C=C\[C@H](C)[C@H](O)[C@@H](C)[C@@H](O)[C@@H](C)[C@H](OC(C)=O)[C@@H]1C)C4=O` [Rifabutin (Mycobutin)] it is 0.9985 ± 0.0026.
Under `COC(=O)[C@@H]1CC2=CC(=O)CC[C@]2(C)[C@@]23O[C@@H]2C[C@@]2(C)[C@@H](CC[C@@]24CCC(=O)O4)[C@H]13` [Eplerenone] stands 0.999 ± 0.0018; under `O=c1c(-c2ccc(O)cc2)coc2cc(O)cc(O)c12` [Genistein], 0.997 ± 0.0052.
Compound `Nc1cccc2c1CN(C1CCC(=O)NC1=O)C2=O` (stereo not given) [Lenalidomide] yielded a fraction of 0.9989 ± 0.0019.
Under `CCCCCCCCOc1ccccc1C(=O)Nc1ccc(C(=O)OCC[N+](C)(CC)CC)cc1` [Otilonium Bromide] stands 0.981 ± 0.033; under `CCN(CC)CCOC(=O)C1(C2CCCCC2)CCCCC1` [Dicyclomine HCl], 0.9971 ± 0.005; under `CCCC(=O)O[C@]1(C(=O)COC(C)=O)CC[C@H]2[C@@H]3C[C@H](F)C4=CC(=O)C=C[C@]4(C)[C@@]3(F)[C@@H](O)C[C@@]21C` [Difluprednate], 0.9971 ± 0.0049.
The figure for `N#Cc1c(N(CC(=O)O)CC(=O)O)sc(C(=O)O)c1CC(=O)O` [Strontium ranelate (Protelos)] is 0.9943 ± 0.0099; for `C[C@@H]1C[C@H]2[C@@H]3CCC4=CC(=O)C=C[C@]4(C)[C@@]3(F)[C@@H](O)C[C@]2(C)[C@@]1(O)C(=O)CO` [Dexamethasone] it is 0.999 ± 0.0017.
Under `C[C@@H]1CCC[C@H](C)N1NC(=O)c1ccc(Cl)c(S(N)(=O)=O)c1` [Clopamide] stands 0.996 ± 0.0069; under `Nc1cccc2c1C(=O)N(C1CCC(=O)NC1=O)C2=O` (stereo not given) [Pomalidomide], 0.998 ± 0.0034.
For the compound `NC1CCN(c2c(F)cc3c(=O)c(C(=O)O)cn(C4CC4)c3c2Cl)C1` (stereo not given) [Clinafoxacin HCl], the fraction is 0.9949 ± 0.0088.
With `CO/N=C(\C(=O)N[C@@H]1C(=O)N2C(C(=O)OCOC(=O)C(C)(C)C)=C(/C=C\c3scnc3C)CS[C@H]12)c1csc(N)n1` [Cefditoren pivoxil], the fraction was 0.9984 ± 0.0027.
Under `COC(=O)CCc1ccc(OCC(O)CNC(C)C)cc1` (stereo not given) [Esmolol HCl] stands 0.987 ± 0.022.
The figure for `Nc1ccn([C@@H]2O[C@H](CO)[C@@H](O)[C@@H]2O)c(=O)n1` [Cytarabine] is 0.9974 ± 0.0044; for `Cc1cn(-c2cc(NC(=O)c3ccc(C)c(Nc4nccc(-c5cccnc5)n4)c3)cc(C(F)(F)F)c2)cn1` [Nilotinib (AMN-107)] it is 0.9974 ± 0.0045; for `CCOC(=O)c1ccc(N)cc1` [Benzocaine] it is 0.978 ± 0.038.
For the compound `CCN(Cc1ccncc1)C(=O)C(CO)c1ccccc1` (stereo not given) [Tropicamide], the fraction came to 0.994 ± 0.011.
The figure for `CC(N/C(=N\C#N)Nc1ccncc1)C(C)(C)C` (stereo not given) [Pinacidil] is 0.9985 ± 0.0027; for `NC[C@@H]1O[C@H](O[C@H]2[C@@H](O)[C@H](O[C@@H]3[C@@H](O)[C@H](N)C[C@H](N)[C@H]3O[C@H]3O[C@H](CO)[C@@H](O)[C@H](O)[C@H]3N)O[C@@H]2CO)[C@H](N)[C@@H](O)[C@@H]1O` [Paromomycin Sulfate] it is 0.987 ± 0.023; for `CCCC(=O)[O-].[Na+]` [Sodium butyrate] it is 0.9949 ± 0.0089.
The figure for `CC(C(=O)O)c1cccc(Oc2ccccc2)c1` (stereo not given) [Fenoprofen calcium hydrate] is 0.969 ± 0.053.
On to `CCOC(=O)O[C@]1(C(=O)OCCl)CC[C@H]2[C@@H]3CCC4=CC(=O)C=C[C@]4(C)[C@H]3[C@@H](O)C[C@@]21C` [Loteprednol etabonate], for which the fraction was determined as 0.9982 ± 0.0032.
In the case of `O=C(O)c1ccc(-n2nc(-c3ccccc3O)nc2-c2ccccc2O)cc1` [Deferasirox (Exjade)], the fraction was found to be 0.9989 ± 0.0019.
The figure for `NC(=O)N/N=C/c1ccc([N+](=O)[O-])o1` [Nitrofurazone (Nitrofural)] is 0.9984 ± 0.0027; for `CCCCOc1ccc(C(=O)CCN2CCCCC2)cc1` [Dyclonine HCl] it is 0.9944 ± 0.0097; for `CC[C@@H](CO)NCCN[C@@H](CC)CO` [Ethambutol HCl] it is 0.993 ± 0.012.
The figure for `CO/N=C(\C(=O)N[C@@H]1C(=O)N2C(C(=O)O)=C(CSC(=O)c3ccco3)CS[C@H]12)c1csc(N)n1` [Ceftiofur hydrochloride] is 0.994 ± 0.011.
The figure for `Cn1c(CNc2ccc(C(=N)N)cc2)nc2cc(C(=O)N(CCC(=O)O)c3ccccn3)ccc21` [BIBR 953 (Dabigatran etexilate, Pradaxa)] is 0.99 ± 0.017; for `Cc1ccccc1N1C(=O)c2cc(S(N)(=O)=O)c(Cl)cc2NC1C` (stereo not given) [Metolazone (Zaroxolyn)] it is 0.9991 ± 0.0015; for `CC(=O)Oc1ccccc1C(=O)Nc1ncc([N+](=O)[O-])s1` [Nitazoxanide (Alinia, Annita)] it is 0.9989 ± 0.002.
`CCC(C)n1ncn(-c2ccc(N3CCN(c4ccc(OCC5COC(Cn6cncn6)(c6ccc(Cl)cc6Cl)O5)cc4)CC3)cc2)c1=O` (stereo not given) [Itraconazole (Sporanox)] returned a fraction of 0.9977 ± 0.0041.
As to `COc1cc(C)c(/C=C/C(C)=C/C=C/C(C)=C/C(=O)O)c(C)c1C` [Acitretin], the fraction was found to be 0.9979 ± 0.0036.
Under `O=C(NCCO[N+](=O)[O-])c1cccnc1` [Nicorandil (Ikorel)] stands 0.983 ± 0.03; under `COc1cccc2c1C(=O)c1c(O)c3c(c(O)c1C2=O)C[C@@](O)(C(C)=O)C[C@@H]3O[C@H]1C[C@H](N)[C@H](O)[C@H](C)O1` [Daunorubicin HCl (Daunomycin HCl)], 0.67 ± 0.57.
